# Experimental data published in patent US10023615B2 (priority 2008, dated 2018).
# Assay: general procedure: Fmoc solid-phase peptide synthesis; Fmoc-Amide-AM resin; Fmoc-Rink Amide resin; HBTU/HOBt/DIEA in DMF; TBTU/HOBt/DIEA in DMF
# Details: whole synthesis, scale of the general procedure 0.4 mmol, 0.23 mmol, 0.40 mmol
substance,measurement,value
dqsrpvqpflnIttprkprpprrrqrrkkrg (DQSRPVQPFLNLTTPRKPRPPRRRQRRKKRG; D-amino acids; D-TAT-IB1 (XG-102); VARIANT (1)..(31) /replace=“D-amino acid”),purity (crude or final not stated),95.28%
